This is an account of results in publication PMC1937012.

These are yes or no findings as the source states them, for the method shown. In cells and extracts the contact can be indirect. Binding calls can cover weak binding; strength is not graded here.

This test deals with T1, Sum1p (S. cerevisiae) (UniProt P46676).
T1 sequence: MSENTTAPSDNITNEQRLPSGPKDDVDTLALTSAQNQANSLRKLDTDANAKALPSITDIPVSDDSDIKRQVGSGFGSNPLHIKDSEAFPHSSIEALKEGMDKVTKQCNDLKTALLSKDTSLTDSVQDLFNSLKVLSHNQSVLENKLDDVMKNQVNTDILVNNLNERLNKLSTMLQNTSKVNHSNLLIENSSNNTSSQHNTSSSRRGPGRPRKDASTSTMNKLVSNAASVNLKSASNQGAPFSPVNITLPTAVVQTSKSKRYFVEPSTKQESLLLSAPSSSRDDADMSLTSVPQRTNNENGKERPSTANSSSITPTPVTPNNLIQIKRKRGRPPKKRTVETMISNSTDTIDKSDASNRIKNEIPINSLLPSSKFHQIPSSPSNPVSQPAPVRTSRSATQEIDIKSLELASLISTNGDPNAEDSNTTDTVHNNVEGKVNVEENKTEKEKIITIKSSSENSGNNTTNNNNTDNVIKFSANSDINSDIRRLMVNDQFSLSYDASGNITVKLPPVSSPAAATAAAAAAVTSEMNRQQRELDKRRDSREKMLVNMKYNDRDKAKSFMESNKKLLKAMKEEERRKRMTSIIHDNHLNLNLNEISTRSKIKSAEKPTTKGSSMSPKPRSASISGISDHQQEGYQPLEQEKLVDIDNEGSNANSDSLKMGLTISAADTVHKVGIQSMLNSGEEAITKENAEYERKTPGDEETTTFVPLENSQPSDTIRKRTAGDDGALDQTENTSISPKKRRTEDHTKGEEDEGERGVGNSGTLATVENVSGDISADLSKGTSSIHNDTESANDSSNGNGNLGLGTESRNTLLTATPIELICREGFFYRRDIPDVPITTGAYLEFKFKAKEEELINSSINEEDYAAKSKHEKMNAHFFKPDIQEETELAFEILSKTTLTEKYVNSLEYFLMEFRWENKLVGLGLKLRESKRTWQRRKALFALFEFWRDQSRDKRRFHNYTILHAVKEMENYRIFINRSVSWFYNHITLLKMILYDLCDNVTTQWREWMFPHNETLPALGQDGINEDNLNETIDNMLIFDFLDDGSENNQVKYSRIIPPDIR
Put plainly: co-IP; Sum1p immunoprecipitated with guinea pig anti-Sum1p serum and protein A agarose from yeast whole-cell lysates, 4 °C; blot with anti-HA; strains HST1-HA (LRY558), hst1Δ (LRY198) or hst1Δ sir2Δ (LRY333) with plasmids.

On to HA-KlSir2p (K. lactis) (enzyme), for which the binding entry is on record as “binds”.
